Among the data in article PMC11551748 are binding values, retold here.

By UniProt entry, the sequences of proteins in these tests, tags left out.
UniProt O14980: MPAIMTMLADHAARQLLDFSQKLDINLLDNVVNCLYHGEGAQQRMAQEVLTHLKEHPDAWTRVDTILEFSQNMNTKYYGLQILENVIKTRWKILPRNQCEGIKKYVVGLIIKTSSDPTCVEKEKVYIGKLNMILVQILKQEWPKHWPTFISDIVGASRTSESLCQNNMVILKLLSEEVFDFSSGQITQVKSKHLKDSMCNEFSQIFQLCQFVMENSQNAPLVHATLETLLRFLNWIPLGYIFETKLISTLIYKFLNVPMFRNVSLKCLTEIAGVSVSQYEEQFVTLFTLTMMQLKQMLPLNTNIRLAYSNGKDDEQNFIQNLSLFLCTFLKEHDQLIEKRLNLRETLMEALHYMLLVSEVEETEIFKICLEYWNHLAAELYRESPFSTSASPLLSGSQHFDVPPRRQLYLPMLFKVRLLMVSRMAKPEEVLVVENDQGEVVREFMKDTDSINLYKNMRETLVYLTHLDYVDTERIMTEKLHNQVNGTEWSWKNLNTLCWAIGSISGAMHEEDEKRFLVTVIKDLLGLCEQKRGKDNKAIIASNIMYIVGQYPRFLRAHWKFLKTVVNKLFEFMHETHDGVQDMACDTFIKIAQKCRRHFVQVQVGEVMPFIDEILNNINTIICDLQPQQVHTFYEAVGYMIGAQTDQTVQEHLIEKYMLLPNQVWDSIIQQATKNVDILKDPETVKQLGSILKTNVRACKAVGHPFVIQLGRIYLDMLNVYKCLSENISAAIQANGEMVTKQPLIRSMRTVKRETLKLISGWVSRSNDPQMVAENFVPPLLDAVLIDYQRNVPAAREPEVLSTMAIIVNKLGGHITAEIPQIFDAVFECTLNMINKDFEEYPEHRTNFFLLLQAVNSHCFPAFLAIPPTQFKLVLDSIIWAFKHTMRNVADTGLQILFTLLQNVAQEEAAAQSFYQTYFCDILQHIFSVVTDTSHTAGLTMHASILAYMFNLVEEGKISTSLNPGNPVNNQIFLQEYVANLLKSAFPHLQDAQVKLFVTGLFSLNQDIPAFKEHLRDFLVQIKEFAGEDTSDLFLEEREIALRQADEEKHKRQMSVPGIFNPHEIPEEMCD
UniProt Q8ND56: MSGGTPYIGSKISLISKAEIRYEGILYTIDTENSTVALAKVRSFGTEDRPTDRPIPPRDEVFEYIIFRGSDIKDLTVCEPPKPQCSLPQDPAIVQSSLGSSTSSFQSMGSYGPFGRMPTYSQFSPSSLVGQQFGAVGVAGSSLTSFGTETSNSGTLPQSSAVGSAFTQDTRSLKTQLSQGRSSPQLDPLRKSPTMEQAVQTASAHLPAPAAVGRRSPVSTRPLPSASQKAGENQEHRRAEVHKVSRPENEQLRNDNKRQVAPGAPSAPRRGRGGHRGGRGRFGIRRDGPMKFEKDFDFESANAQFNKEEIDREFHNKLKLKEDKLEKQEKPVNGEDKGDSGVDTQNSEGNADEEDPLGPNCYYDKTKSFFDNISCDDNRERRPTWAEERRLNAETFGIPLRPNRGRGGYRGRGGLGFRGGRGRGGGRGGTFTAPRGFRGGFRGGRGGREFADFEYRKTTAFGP
UniProt Q12888: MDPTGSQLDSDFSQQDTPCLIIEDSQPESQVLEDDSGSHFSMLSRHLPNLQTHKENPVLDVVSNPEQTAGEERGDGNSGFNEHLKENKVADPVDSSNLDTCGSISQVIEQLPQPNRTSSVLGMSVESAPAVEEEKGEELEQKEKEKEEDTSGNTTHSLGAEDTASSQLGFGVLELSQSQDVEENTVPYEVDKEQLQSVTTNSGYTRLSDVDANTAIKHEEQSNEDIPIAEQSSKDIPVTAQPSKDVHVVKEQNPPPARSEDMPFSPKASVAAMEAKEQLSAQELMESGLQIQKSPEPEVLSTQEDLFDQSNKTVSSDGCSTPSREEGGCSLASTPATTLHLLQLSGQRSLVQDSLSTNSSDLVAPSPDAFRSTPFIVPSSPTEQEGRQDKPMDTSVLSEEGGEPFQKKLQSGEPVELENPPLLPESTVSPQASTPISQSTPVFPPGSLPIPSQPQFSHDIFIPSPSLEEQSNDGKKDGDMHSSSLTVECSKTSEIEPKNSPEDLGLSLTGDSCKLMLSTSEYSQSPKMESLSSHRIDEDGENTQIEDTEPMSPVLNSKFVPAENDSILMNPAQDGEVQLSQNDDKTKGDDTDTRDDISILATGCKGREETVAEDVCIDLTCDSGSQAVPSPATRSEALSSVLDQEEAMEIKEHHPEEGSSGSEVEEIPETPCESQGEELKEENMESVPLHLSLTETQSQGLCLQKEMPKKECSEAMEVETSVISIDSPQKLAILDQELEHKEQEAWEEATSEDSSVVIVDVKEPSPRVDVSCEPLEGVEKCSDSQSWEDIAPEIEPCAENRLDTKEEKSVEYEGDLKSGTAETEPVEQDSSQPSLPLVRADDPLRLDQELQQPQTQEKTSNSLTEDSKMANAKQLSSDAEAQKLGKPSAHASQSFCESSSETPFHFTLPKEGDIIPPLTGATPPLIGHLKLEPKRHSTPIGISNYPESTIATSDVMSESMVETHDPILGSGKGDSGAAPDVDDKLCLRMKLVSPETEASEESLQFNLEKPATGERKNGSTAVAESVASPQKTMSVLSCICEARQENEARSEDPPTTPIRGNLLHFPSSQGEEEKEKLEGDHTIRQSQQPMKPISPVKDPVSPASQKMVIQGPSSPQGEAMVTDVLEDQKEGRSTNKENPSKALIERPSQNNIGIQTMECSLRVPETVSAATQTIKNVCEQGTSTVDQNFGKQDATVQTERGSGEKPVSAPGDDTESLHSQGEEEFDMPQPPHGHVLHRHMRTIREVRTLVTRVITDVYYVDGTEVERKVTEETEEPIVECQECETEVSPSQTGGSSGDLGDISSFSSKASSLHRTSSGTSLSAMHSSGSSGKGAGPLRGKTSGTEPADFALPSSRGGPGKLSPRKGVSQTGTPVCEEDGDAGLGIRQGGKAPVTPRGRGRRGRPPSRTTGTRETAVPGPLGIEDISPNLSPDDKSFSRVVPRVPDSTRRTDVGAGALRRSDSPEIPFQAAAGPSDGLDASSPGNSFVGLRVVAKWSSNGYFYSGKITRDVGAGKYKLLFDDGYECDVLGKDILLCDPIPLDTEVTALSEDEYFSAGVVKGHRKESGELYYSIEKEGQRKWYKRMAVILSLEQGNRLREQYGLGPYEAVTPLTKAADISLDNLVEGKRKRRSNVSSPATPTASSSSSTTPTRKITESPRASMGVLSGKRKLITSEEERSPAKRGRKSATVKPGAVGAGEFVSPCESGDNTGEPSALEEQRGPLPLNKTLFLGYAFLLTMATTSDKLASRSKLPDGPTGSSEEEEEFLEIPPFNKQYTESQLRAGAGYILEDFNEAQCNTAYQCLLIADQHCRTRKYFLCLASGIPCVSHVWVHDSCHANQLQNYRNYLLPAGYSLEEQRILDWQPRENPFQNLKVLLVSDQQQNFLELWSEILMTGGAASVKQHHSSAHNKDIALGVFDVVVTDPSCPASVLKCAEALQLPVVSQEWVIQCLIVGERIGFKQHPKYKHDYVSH

No constants are given. Whether binding was seen depends on the method and setting. For part of these data: Binding seen in cells or lysates may run through a third protein. Some results given as binding are weak or reduced against the parent protein; the word gives no strength. For part of these data: Tags and fused reporters may be left off the sequences shown.

Experiment [1] deals with Tudor interacting repair regulator (TIRR), endogenous (human (endogenous in HeLa and U2OS)) (UniProt Q9BRJ7). The experiment is described as follows: proximity ligation; PLA with TIRR and XPO1 antibodies in cells with or without ETO or IR; single antibodies as negative control.
In experiment [2] the target is TIRR-GFP (doxycycline-induced overexpression, Flp-IN HeLa cells) (UniProt Q9BRJ7). Briefly: co-IP; GFP-Trap magnetic beads on lysates of cells with doxycycline-induced TIRR-GFP or GFP only; damage and non-damage conditions; blot for XPO1.
Experiment [3] addresses T1, TIRR-GFP 53BP1 binding mutant (K10E) (UniProt Q9BRJ7).
T1 sequence: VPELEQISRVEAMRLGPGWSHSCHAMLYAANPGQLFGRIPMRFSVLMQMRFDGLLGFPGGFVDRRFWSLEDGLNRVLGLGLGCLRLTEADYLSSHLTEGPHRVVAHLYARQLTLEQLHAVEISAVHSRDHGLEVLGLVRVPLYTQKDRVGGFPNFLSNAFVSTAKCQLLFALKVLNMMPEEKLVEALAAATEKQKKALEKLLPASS
Briefly: co-IP; GFP-Trap magnetic beads on lysates of lentivirus-integrated stable U2OS cell lines (GFP, TIRR-GFP WT and mutants); WT with and without ETO, mutants with ETO; blots for XPO1 and 53BP1.

Experiment [4] concerns the target TIRR-GFP WT (lentivirus-integrated, U2OS) (UniProt Q9BRJ7). The experiment is described as above.
Experiment [5] shares this target. Briefly: proximity ligation; TIRR/XPO1 PLA in stable U2OS cell lines (WT TIRR-GFP or GFP alone) in a TIRR knock-down background.
Experiment [6] has as its target Tudor interacting repair regulator (TIRR), endogenous (human (endogenous in HeLa and U2OS)) (UniProt Q9BRJ7). The experiment is described as follows: proximity ligation; PLA with antibodies against TIRR and LSM14A in HeLa and U2OS cells with or without ETO, and in HeLa cells with IR; single antibodies as negative controls.
In experiment [7] the target is Flag-hCRM1 (FLAG-XPO1) (human) (UniProt O14980). The experiment is described as follows: co-IP; Anti-FLAG M2 magnetic beads on lysates of U2OS cells transiently transfected with XPO1-FLAG or mScarlet-FLAG; non-damage and damage conditions; blot for TIRR.
The target of experiment [8] is recombinant His-tagged TIRR (Tudor interacting repair regulator) (UniProt Q9BRJ7). Briefly: pull-down; 1.5 ug His-TIRR on Ni-NTA magnetic agarose beads, 6 ug GST-tagged XPO1 added for 1 h at 4°C; 50 mM Tris pH 7.4, 150 mM NaCl, 5 mM MgCl2, 10% glycerol; eluted with 500 mM imidazole, western blot for GST and His; both purified. Background: In western blotting, separated proteins are transferred to a membrane and probed.

As for “Exportin-1 (XPO1), endogenous (from UniProt O14980 1-1071)”, the binding result in experiment [1], in experiment [2], in experiment [3], in experiment [4] and in experiment [5] was “binds” each time.
For “LSM14A, endogenous (from UniProt Q8ND56 1-463)”, in experiment [6], the binding entry is given as “binds”.
For “Tudor interacting repair regulator (TIRR), endogenous (from UniProt Q9BRJ7 1-211)”, in experiment [7], the binding result was “binds”.
As for “p53 binding protein 1 (53BP1), endogenous (from UniProt Q12888 1-1972)”, in experiment [4], the binding entry is “binds”.
As for “recombinant GST-tagged XPO1 (ab131897, Abcam) (from UniProt O14980 1-1071)”, the binding entry in experiment [8] is given as “binds”.
